Measured values reported in patent US10058577B2, “Thermo-stable strains, products and methods thereof” (TRIPHASE PHARMACEUTICALS PVT. LTD., priority 2014, dated 2018).
At least one structure is not confirmed: it was looked up by name or label, or the drawing left a doubt.

Experiments:
[1] = test system: Lactobacillus acidophilus TSP-La1; experiment: Antibiotic susceptibility by disk diffusion method; assay type: cell-based
Experimental: (§1) In order to ascertain the sensitivity of the thermostable strains in the food products towards antibiotics, Antibiotic susceptibility profile for Lactobacillus acidophilus is created by disk diffusion method. The susceptibility criteria used is established by Charteris et al. The Lactobacillus acidophilus is grown in Man Rogosa Sharpe Agar (MRSA).
67.15 grams is suspended in 1000 ml distilled water and heated to boiling to dissolve the medium completely. It is sterilized by autoclaving at 15 lbs pressure (121° C.) for 20 minutes, mixed well and poured into sterile Petri plates.
The concentration of the tested antibiotics has been included depending upon their minimum inhibitory concentrations.

[2] = test system: Lactobacillus plantarum TSP-Lp1; experiment: Antibiotic susceptibility by disk diffusion method; assay type: cell-based
Experimental: as §1
The same set of study as the previous example is conducted using Lactobacillus plantarum strain of the present disclosure and the results for the study are depicted in Table No. 13 as below. The susceptibility criteria used is established by Charteris et al. The Lactobacillus acidophilus is grown in Man Rogosa Sharpe Agar, […]

Compound: CCC[C@@H]1C[C@@H](C(=O)N[C@@H]([C@H]2O[C@H](SC)[C@H](O)[C@@H](O)[C@H]2O)[C@H](C)Cl)N(C)C1 [Clindamycin]
- Resistant/Sensitive ([1]; 2 μg): Sensitive
- Resistant/Sensitive ([2]; 2 μg): Sensitive

Compound: NC[C@H]1O[C@H](O[C@H]2[C@H](O)[C@@H](O[C@H]3O[C@H](CO)[C@@H](O)[C@H](N)[C@H]3O)[C@H](N)C[C@@H]2N)[C@H](O)[C@@H](O)[C@@H]1O [Kanamycin]
- MIC Results ([1]; 30 μg): No Zone
- Resistant/Sensitive ([1]; 30 μg): Resistant
- MIC Results ([2]; 30 μg): No Zone
- Resistant/Sensitive ([2]; 30 μg): Resistant

Compound: CO[C@H]1/C=C/O[C@@]2(C)Oc3c(C)c(O)c4c(O)c(c(/C=N/N5CCN(C)CC5)c(O)c4c3C2=O)NC(=O)/C(C)=C\C=C\[C@H](C)[C@H](O)[C@@H](C)[C@@H](O)[C@@H](C)[C@H](OC(C)=O)[C@@H]1C [Rifampicin]
- Resistant/Sensitive ([1]; 5 μg): Sensitive
- Resistant/Sensitive ([2]; 5 μg): Sensitive

Compound: CN(C)[C@@H]1C(O)=C(C(N)=O)C(=O)[C@@]2(O)C(O)=C3C(=O)c4c(O)cccc4[C@@](C)(O)[C@H]3C[C@@H]12 [Tetracycline]
- Resistant/Sensitive ([1]; 30 μg): Resistant
- Resistant/Sensitive ([2]; 30 μg): Sensitive
